According to paper PMC9481740:
Where a chain is given by its changes, count along the chain named. In names and notes the source's numbering stands. These are yes or no findings as the source states them, for the method shown. For some assays here: Where a sequence is shown, tags or fusion partners need not be part of it.

B1: Spindly^1–250 (domain or fragment, UniProt Q96EA4 1-250)
chain: MEADIITNLRCRLKEAEEERLKAAQYGLQLVESQNELQNQLDKCRNEMMTMTESYEQEKYTLQREVELKSRMLESLSCECEAIKQQQKMHLEKLEEQLSRSHGQEVNELKTKIEKLKVELDEARLSEKQLKHQVDHQKELLSCKSEELRVMSERVQESMSSEMLALQIELTEMESMKTTLKEEVNELQYRQEQLELLITNLMRQVDRLKEEKEEREKEAVSYYNALEKARVANQDLQVQLDQALQQALDP
B2: Spindly^1–354 (domain or fragment, UniProt Q96EA4 1-354)
chain: MEADIITNLRCRLKEAEEERLKAAQYGLQLVESQNELQNQLDKCRNEMMTMTESYEQEKYTLQREVELKSRMLESLSCECEAIKQQQKMHLEKLEEQLSRSHGQEVNELKTKIEKLKVELDEARLSEKQLKHQVDHQKELLSCKSEELRVMSERVQESMSSEMLALQIELTEMESMKTTLKEEVNELQYRQEQLELLITNLMRQVDRLKEEKEEREKEAVSYYNALEKARVANQDLQVQLDQALQQALDPNSKGNSLFAEVEDRRAAMERQLISMKVKYQSLKKQNVFNREQMQRMKLQIATLLQMKGSQTEFEQQERLLAMLEQKNGEIKHLLGEIRNLEKFKNLYDSMESKP
B3: ^mChSpindly^22–605 (domain or fragment, UniProt Q96EA4 22-605)
chain: KAAQYGLQLVESQNELQNQLDKCRNEMMTMTESYEQEKYTLQREVELKSRMLESLSCECEAIKQQQKMHLEKLEEQLSRSHGQEVNELKTKIEKLKVELDEARLSEKQLKHQVDHQKELLSCKSEELRVMSERVQESMSSEMLALQIELTEMESMKTTLKEEVNELQYRQEQLELLITNLMRQVDRLKEEKEEREKEAVSYYNALEKARVANQDLQVQLDQALQQALDPNSKGNSLFAEVEDRRAAMERQLISMKVKYQSLKKQNVFNREQMQRMKLQIATLLQMKGSQTEFEQQERLLAMLEQKNGEIKHLLGEIRNLEKFKNLYDSMESKPSVDSGTLEDNTYYTDLLQMKLDNLNKEIESTKGELSIQRMKALFESQRALDIERKLFANERCLQLSESENMKLRAKLDELKLKYEPEETVEVPVLKKRREVLPVDITTAKDACVNNSALGGEVYRLPPQKEETQSCPNSLEDNNLQLEKSVSIYTPVVSLSPHKNLPVDMQLKKEKKCVKLIGVPADAEALSERSGNTPNSPRLAAESKLQTEVKEGKETSSKLEKETCKKLHPILYVSSKSTPETQCPQQ
B4: ^mChSpindly^∆26–28 (protein, UniProt Q96EA4 1-605)
chain: MEADIITNLRCRLKEAEEERLKAAQQLVESQNELQNQLDKCRNEMMTMTESYEQEKYTLQREVELKSRMLESLSCECEAIKQQQKMHLEKLEEQLSRSHGQEVNELKTKIEKLKVELDEARLSEKQLKHQVDHQKELLSCKSEELRVMSERVQESMSSEMLALQIELTEMESMKTTLKEEVNELQYRQEQLELLITNLMRQVDRLKEEKEEREKEAVSYYNALEKARVANQDLQVQLDQALQQALDPNSKGNSLFAEVEDRRAAMERQLISMKVKYQSLKKQNVFNREQMQRMKLQIATLLQMKGSQTEFEQQERLLAMLEQKNGEIKHLLGEIRNLEKFKNLYDSMESKPSVDSGTLEDNTYYTDLLQMKLDNLNKEIESTKGELSIQRMKALFESQRALDIERKLFANERCLQLSESENMKLRAKLDELKLKYEPEETVEVPVLKKRREVLPVDITTAKDACVNNSALGGEVYRLPPQKEETQSCPNSLEDNNLQLEKSVSIYTPVVSLSPHKNLPVDMQLKKEKKCVKLIGVPADAEALSERSGNTPNSPRLAAESKLQTEVKEGKETSSKLEKETCKKLHPILYVSSKSTPETQCPQQ
B5: ^mChSpindly^SM*^-CC2* (F258A, R295E-K297E) (protein, UniProt Q96EA4 1-605)
chain: MEADIITNLRCRLKEAEEERLKAAQYGLQLVESQNELQNQLDKCRNEMMTMTESYEQEKYTLQREVELKSRMLESLSCECEAIKQQQKMHLEKLEEQLSRSHGQEVNELKTKIEKLKVELDEARLSEKQLKHQVDHQKELLSCKSEELRVMSERVQESMSSEMLALQIELTEMESMKTTLKEEVNELQYRQEQLELLITNLMRQVDRLKEEKEEREKEAVSYYNALEKARVANQDLQVQLDQALQQALDPNSKGNSLAAEVEDRRAAMERQLISMKVKYQSLKKQNVFNREQMQEMELQIATLLQMKGSQTEFEQQERLLAMLEQKNGEIKHLLGEIRNLEKFKNLYDSMESKPSVDSGTLEDNTYYTDLLQMKLDNLNKEIESTKGELSIQRMKALFESQRALDIERKLFANERCLQLSESENMKLRAKLDELKLKYEPEETVEVPVLKKRREVLPVDITTAKDACVNNSALGGEVYRLPPQKEETQSCPNSLEDNNLQLEKSVSIYTPVVSLSPHKNLPVDMQLKKEKKCVKLIGVPADAEALSERSGNTPNSPRLAAESKLQTEVKEGKETSSKLEKETCKKLHPILYVSSKSTPETQCPQQ
B6: GST-Spindly^FL (protein, UniProt Q96EA4 1-605)
chain: B5 chain with A258F, E295R, E297K
B7: Spindly^51–250 (domain or fragment, UniProt Q96EA4 51-250)
chain: MTESYEQEKYTLQREVELKSRMLESLSCECEAIKQQQKMHLEKLEEQLSRSHGQEVNELKTKIEKLKVELDEARLSEKQLKHQVDHQKELLSCKSEELRVMSERVQESMSSEMLALQIELTEMESMKTTLKEEVNELQYRQEQLELLITNLMRQVDRLKEEKEEREKEAVSYYNALEKARVANQDLQVQLDQALQQALDP

Columns and labels:
[1] = target: T1, Spindly^250–275_307–605 (human) (UniProt Q96EA4); assay: SEC; Spindly N-terminal and C-terminal fragments mixed, 10 µM each; 4°C, Spindly buffer; fractions on SDS-PAGE; both purified
T1 sequence: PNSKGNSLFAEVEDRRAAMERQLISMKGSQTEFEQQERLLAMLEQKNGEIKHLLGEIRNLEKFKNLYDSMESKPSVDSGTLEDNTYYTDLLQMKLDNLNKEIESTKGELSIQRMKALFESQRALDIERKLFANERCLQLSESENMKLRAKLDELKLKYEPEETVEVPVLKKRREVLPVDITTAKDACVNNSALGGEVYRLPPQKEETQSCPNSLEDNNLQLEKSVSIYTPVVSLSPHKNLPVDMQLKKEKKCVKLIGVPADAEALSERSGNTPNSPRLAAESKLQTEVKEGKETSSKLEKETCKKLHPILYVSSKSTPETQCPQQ

[2] = target: Dynactin pointed-end (PE) capping complex (p25, p27, p62, Arp11) (UniProt Q9NZ32); assay: SEC; PE complex 3 µM mixed with Spindly construct 8 µM (Fig. 3 F: 4 µM and 10 µM), at least 1 h on ice; Superdex 200 5/150 (named in the legend of Fig. 5); 4°C, Spindly buffer (50 mM Hepes pH 8.0, 250 mM NaCl, 2 mM TCEP); fractions on SDS-PAGE; both purified
Spindly^250–605 (human) = target: T2, Spindly^250–605 (human) (UniProt Q96EA4); assay: SEC; Spindly N-terminal and C-terminal fragments mixed, 10 µM each; 4°C, Spindly buffer; fractions on SDS-PAGE; both purified
T2 sequence: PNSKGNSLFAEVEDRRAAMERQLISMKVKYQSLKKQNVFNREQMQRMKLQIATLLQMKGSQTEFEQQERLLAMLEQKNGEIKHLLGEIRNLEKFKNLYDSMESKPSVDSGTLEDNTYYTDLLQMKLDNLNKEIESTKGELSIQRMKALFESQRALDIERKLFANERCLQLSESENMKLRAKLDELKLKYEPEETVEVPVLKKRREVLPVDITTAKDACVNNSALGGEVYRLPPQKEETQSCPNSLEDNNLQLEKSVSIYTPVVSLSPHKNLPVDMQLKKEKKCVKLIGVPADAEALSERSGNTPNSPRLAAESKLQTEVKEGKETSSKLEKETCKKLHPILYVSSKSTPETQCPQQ

Row | Binder | binding [1] | binding [2] | binding (Spindly^250–605 (human))
1 | B1 | no binding (tested: 10 µM each) | no binding (tested: Spindly construct 8 µM, PE 3 µM) | –
2 | B2 | – | no binding (tested: Spindly construct 8 µM, PE 3 µM) | –
3 | B3 | – | no binding (tested: Spindly construct 8 µM, PE 3 µM) | –
4 | B4 | – | no binding (tested: Spindly construct 8 µM, PE 3 µM) | –
5 | B5 | – | no binding (tested: Spindly construct 8 µM, PE 3 µM) | –
6 | B6 | – | no binding (tested: Spindly construct 8 µM, PE 3 µM) | –
7 | B7 | – | – | no binding (tested: 10 µM each)
